# The list does not hold the whole screen: it gathers tests that were run many times, whatever their T/C, doses with no T/C, and many T/C values between a quarter and a half above the control. Further doses and runs are listed elsewhere. T/C: endpoint of the treated group in % of that of the vehicle group. Some doses have a count of surviving animals in place of a T/C: the source holds a T/C of zero for them, seemingly a mark for toxic or unscored doses. Some doses without a T/C left all or most animals alive at the check, yet need not have been tolerated: the source hardly ever lists a survival T/C far under the control, and the zero likely stands for such cases as well. Counts of survivors are from the toxicity check (mostly the fifth day) where no day follows; animals may have died later. Schedules are NCI's codes, read here as Q, the interval in days (D) or hours (H), X, the number of doses. Some schedule codes hold Z or #, which are not explained here. Where survival is the endpoint, the PubChem record calls one and a half times the control and up active, and a quarter to a half above the control has no call in these data; cut-offs in other NCI protocols can differ. Some T/C values carry the count of animals alive at the toxicity check (mostly the fifth day); where none is given, no animal had died by that day. Some entries hold several experiments; their values stand side by side, smallest first.
# Test system: L1210 leukemia ip in BDF1 mice, survival T/C
# Assay: NCI In Vivo Anticancer Drug Screen. Data for tumor model L1210 Leukemia (intraperitoneal) in B6D2F1 (BDF1) mice
# Details: T/C endpoint: mean survival time, higher T/C = longer survival
# [1] = dose: 200.0 mg/kg/injection, schedule: Q01DX001 (ip), vehicle: saline
# [2] = dose: 400.0 mg/kg/injection, schedule: Q01DX001 (ip), vehicle: saline
# [3] = dose: 400.0 mg/kg/injection, schedule: Q04DX003 (ip), vehicle: saline with Tween-80
# [4] = dose: 100.0 mg/kg/injection, schedule: Q04DX003 (ip), vehicle: Klucel (hydroxypropylcellulose) (HPC)
# [5] = dose: 200.0 mg/kg/injection, schedule: Q01DX009 (ip), vehicle: saline with Tween-80
# [6] = dose: 400.0 mg/kg/injection, schedule: Q01DX009 (ip), vehicle: saline with Tween-80
smiles,measurement,setting,value
N#C/C=C/C1CCCCC1,survivor count,[1],2 of 6
same,survivor count,[2],0 of 6
Cc1cc(=O)[nH]c2ccccc12,survivor count,[3],3 of 6
Cc1cc(C)n(/N=C/c2ccc3c(c2)CCC3)c(=O)c1C#N,survivor count,[4],6 of 6
Clc1ccc(-c2cc[s+]s2)cc1,survivor count,"dose: 25.0 mg/kg/injection, schedule: Q01DX009 (ip), vehicle: water",6 of 6
same,survivor count,"dose: 100.0 mg/kg/injection, schedule: Q01DX009 (ip), vehicle: water",1 of 6
same,survivor count,"dose: 200.0 mg/kg/injection, schedule: Q04DX003 (ip), vehicle: water",2 of 6
same,survivor count,"dose: 400.0 mg/kg/injection, schedule: Q04DX003 (ip), vehicle: water",1 of 6
CN1CCN(CCNc2ccc(CO)c3sc4ccccc4c(=O)c23)CC1,survivor count,"dose: 250.0 mg/kg/injection, schedule: Q01DX009 (ip), vehicle: Klucel (hydroxypropylcellulose) (HPC)",2 of 6
C=COC(=O)NC(Cc1ccccc1)C(=O)O (stereo not drawn),survivor count,[2],0 of 6
O=C(CCCCCCCCC(=O)N/N=C/c1ccc(Cl)c(Cl)c1)N/N=C/c1ccc(Cl)c(Cl)c1,survivor count,[5],6 of 6
same,survivor count,[3],5 of 6
Nc1nc(N)c(N=Nc2ccccc2S(=O)(=O)O)c(=O)[nH]1,survivor count,"dose: 100.0 mg/kg/injection, schedule: Q04DX003 (ip), vehicle: saline",6 of 6
same,survivor count,"dose: 200.0 mg/kg/injection, schedule: Q04DX003 (ip), vehicle: saline",3 of 6
CC(C)=NC(=O)NO.[Cl][Ni][Cl],survivor count,"dose: 150.0 mg/kg/injection, schedule: Q01DX001 (ip), vehicle: saline",0 of 6
same,survivor count,"dose: 300.0 mg/kg/injection, schedule: Q01DX001 (ip), vehicle: saline",0 of 6
OCC1OC(n2cnc3c2ncn2ccnc32)C(O)C1O (stereo not drawn),survivor count,"dose: 400.0 mg/kg/injection, schedule: Q03HX024 (ip), vehicle: saline",6 of 6
CC12C3CCC(C3)C1(O)C2S(=O)(=O)N1CCCCC1 (stereo not drawn),survivor count,"dose: 400.0 mg/kg/injection, schedule: Q01DX009 (ip), vehicle: saline",6 of 6
Cc1cc(OCC(=O)O)c(Cl)cc1Cl,survivor count,[5],3 of 3
COc1ccc(Br)cc1,survivor count,[6],2 of 6
CCCCN(C)N=Nc1ccc(C(=N)N)cc1,survivor count,"dose: 100.0 mg/kg/injection, schedule: Q01DX001 (ip), vehicle: alkali diluted with CMC",0 of 6
same,survivor count,"dose: 200.0 mg/kg/injection, schedule: Q01DX001 (ip), vehicle: alkali diluted with CMC",0 of 6
same,survivor count,"dose: 400.0 mg/kg/injection, schedule: Q01DX001 (ip), vehicle: alkali diluted with CMC",0 of 6
COC1=C(Br)[C@H](O)[C@](O)(CC#N)C=C1Br,survivor count,"dose: 100.0 mg/kg/injection, schedule: Q01DX001 (ip), vehicle: Klucel (hydroxypropylcellulose) (HPC)",1 of 6
same,survivor count,[1],2 of 6
same,survivor count,[2],0 of 6
CN(C(=O)CCC(=O)N(C)c1ccccc1)c1ccccc1,survivor count,[6],6 of 6
CCCCCC(=O)Oc1c(C(C)(C)C)cc([N+](=O)[O-])c(C)c1[N+](=O)[O-],survivor count,"dose: 400.0 mg/kg/injection, schedule: Q04DX002 (ip), vehicle: saline",1 of 3
CCCOC1=C(N2CC2)C(=O)C(OCCC)=C(N2CC2)C1=O,T/C,"dose: 2.5 mg/kg/injection, schedule: Q01DX Z (ip), vehicle: alkali diluted with saline",125 % of control
same,T/C,"dose: 2.5 mg/kg/injection, schedule: Q#A X Z (ip), vehicle: alkali diluted with saline",136 % of control
same,T/C,"dose: 5.0 mg/kg/injection, schedule: Q01DX Z (im), vehicle: alkali diluted with saline",130 % of control
same,T/C,"dose: 5.0 mg/kg/injection, schedule: Q01DX Z (ip), vehicle: alkali diluted with saline",125 % of control
same,T/C,"dose: 5.0 mg/kg/injection, schedule: Q01DX Z (sc), vehicle: alkali diluted with saline",128 % of control
same,T/C,"dose: 7.5 mg/kg/injection, schedule: Q01DX009 (ip), vehicle: Klucel (hydroxypropylcellulose) (HPC)",138 % of control
same,T/C,"dose: 7.5 mg/kg/injection, schedule: Q04DX003 (ip), vehicle: Klucel (hydroxypropylcellulose) (HPC)",131 % of control
same,T/C,"dose: 10.0 mg/kg/injection, schedule: Q01DX Z (ip), vehicle: alkali diluted with saline",146 % of control
same,T/C,"dose: 10.0 mg/kg/injection, schedule: Q01DX Z (sc), vehicle: alkali diluted with saline",133 % of control
same,T/C,"dose: 10.0 mg/kg/injection, schedule: Q#A X Z (ip), vehicle: alkali diluted with saline",134 % of control
same,T/C,"dose: 15.0 mg/kg/injection, schedule: Q04DX003 (ip), vehicle: Klucel (hydroxypropylcellulose) (HPC)",137 % of control
same,T/C,"dose: 15.87 mg/kg/injection, schedule: Q01DX001 (ip), vehicle: saline with Tween-80",127 % of control
same,T/C,"dose: 20.0 mg/kg/injection, schedule: Q01DX Z (ip), vehicle: alkali diluted with saline",125 % of control
same,T/C,"dose: 20.0 mg/kg/injection, schedule: Q01DX Z (oral), vehicle: alkali diluted with saline",125 % of control
same,survivor count,"dose: 31.75 mg/kg/injection, schedule: Q01DX001 (ip), vehicle: saline with Tween-80",8 of 10
same,T/C,"dose: 40.0 mg/kg/injection, schedule: Q01DX Z (oral), vehicle: alkali diluted with saline",139 % of control
same,survivor count,"dose: 40.0 mg/kg/injection, schedule: Q#A X Z (ip), vehicle: alkali diluted with saline",6 of 6
same,T/C,"dose: 62.0 mg/kg/injection, schedule: Q01DX001 (ip), vehicle: alkali diluted with saline",141 % of control
same,survivor count,"dose: 62.5 mg/kg/injection, schedule: Q01DX001 (ip), vehicle: saline with Tween-80",3 of 10
same,T/C,"dose: 80.0 mg/kg/injection, schedule: Q01DX001 (ip), vehicle: alkali diluted with saline",129 % of control
same,survivor count,"dose: 80.0 mg/kg/injection, schedule: Q01DX Z (im), vehicle: alkali diluted with saline",6 of 6
same,survivor count,"dose: 80.0 mg/kg/injection, schedule: Q01DX Z (ip), vehicle: alkali diluted with saline",6 of 6
same,survivor count,"dose: 80.0 mg/kg/injection, schedule: Q01DX Z (sc), vehicle: alkali diluted with saline",6 of 6
same,T/C,"dose: 80.0 mg/kg/injection, schedule: Q07DX003 (ip), vehicle: alkali diluted with saline",139 % of control
same,survivor count,"dose: 80.0 mg/kg/injection, schedule: Q#A X Z (ip), vehicle: alkali diluted with saline",2 of 6
same,survivor count,"dose: 125.0 mg/kg/injection, schedule: Q01DX001 (ip), vehicle: saline with Tween-80",0 of 10
same,survivor count,"dose: 160.0 mg/kg/injection, schedule: Q01DX Z (im), vehicle: alkali diluted with saline",5 of 6
same,survivor count,"dose: 160.0 mg/kg/injection, schedule: Q01DX Z (ip), vehicle: alkali diluted with saline",4 of 6
same,survivor count,"dose: 160.0 mg/kg/injection, schedule: Q01DX Z (oral), vehicle: alkali diluted with saline",5 of 6
same,survivor count,"dose: 160.0 mg/kg/injection, schedule: Q01DX Z (sc), vehicle: alkali diluted with saline",5 of 6
same,survivor count,"dose: 250.0 mg/kg/injection, schedule: Q01DX001 (ip), vehicle: alkali diluted with saline",2 of 6
same,survivor count,"dose: 250.0 mg/kg/injection, schedule: Q01DX001 (ip), vehicle: saline with Tween-80",0 of 10
same,survivor count,"dose: 320.0 mg/kg/injection, schedule: Q01DX Z (oral), vehicle: alkali diluted with saline",2 of 6
same,survivor count,"dose: 500.0 mg/kg/injection, schedule: Q01DX001 (ip), vehicle: saline with Tween-80",0 of 10
same,T/C,"dose: 640.0 mg/kg/injection, schedule: Q01DX001 (ip), vehicle: alkali diluted with saline",125 and 134 % of control [5 of 6 alive]
same,survivor count,"dose: 640.0 mg/kg/injection, schedule: Q01DX Z (oral), vehicle: alkali diluted with saline",0 of 6
OC1C2COc3nc4ccccc4n3C(O2)C1O (stereo not drawn),survivor count,[2],6 of 6
CN(Cc1cnc(N)nc1N)c1ccc(C(=O)O)cc1,survivor count,"dose: 200.0 mg/kg/injection, schedule: Q01DX001 (ip), vehicle: carboxymethylcellulose (CMC)",3 of 3
O=C1NC2(CCCC2)C(=O)N2CCCC12 (stereo not drawn),survivor count,[4],3 of 3
same,survivor count,"dose: 200.0 mg/kg/injection, schedule: Q04DX003 (ip), vehicle: Klucel (hydroxypropylcellulose) (HPC)",3 of 3

# Source: PubChem BioAssay AID248 (DTP/NCI, 2004)
